Assay results as given in patent EP4790144A1.
These are yes or no findings as the source states them, for the method shown. Some entries that bind do so weakly or less than the wild type.

By UniProt entry, the sequences of proteins in these tests, tags left out. Where a name states a change or a piece, a line headed by the entry shows the natural chain unless it says otherwise.
UniProt P33897: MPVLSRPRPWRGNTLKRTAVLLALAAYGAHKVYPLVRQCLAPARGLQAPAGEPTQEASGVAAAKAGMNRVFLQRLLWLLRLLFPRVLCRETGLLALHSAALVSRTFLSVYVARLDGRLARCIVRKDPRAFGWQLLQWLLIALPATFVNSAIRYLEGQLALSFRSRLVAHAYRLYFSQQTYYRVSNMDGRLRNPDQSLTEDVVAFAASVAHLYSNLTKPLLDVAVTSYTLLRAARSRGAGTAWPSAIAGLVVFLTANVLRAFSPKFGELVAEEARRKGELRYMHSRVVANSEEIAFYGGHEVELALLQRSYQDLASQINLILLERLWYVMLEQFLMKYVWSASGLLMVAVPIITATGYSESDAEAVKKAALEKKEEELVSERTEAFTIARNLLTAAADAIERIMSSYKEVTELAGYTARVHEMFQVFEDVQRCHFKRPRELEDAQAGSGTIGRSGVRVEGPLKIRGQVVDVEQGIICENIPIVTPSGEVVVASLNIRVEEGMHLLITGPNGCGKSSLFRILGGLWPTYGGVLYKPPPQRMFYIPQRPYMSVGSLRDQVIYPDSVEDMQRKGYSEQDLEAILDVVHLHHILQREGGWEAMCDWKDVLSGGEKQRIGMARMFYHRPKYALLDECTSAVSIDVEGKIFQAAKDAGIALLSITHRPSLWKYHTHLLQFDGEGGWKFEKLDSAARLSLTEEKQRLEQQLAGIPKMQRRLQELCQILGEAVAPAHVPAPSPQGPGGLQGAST

Molecular target: 2023-601 project-ABCD1 protein (human) (UniProt P33897)
Test: ELISA, ABCD1 protein coated at 2 ug/mL, HRP goat anti-mouse secondary antibody

B1: 07PC44 (antibody, V domains shown)
VH: QVQLQQSGPELVKPGASVKMSCKASGYTFTDYVISWVKQRTGQGLEWIGEIYPGSGSTYYNEKFKGKATLTADKSSNTAYMQLSSLTSEDSAVYFCARSYDYDGLAWFAYWGQGTLVTVSA
VL: DIVMTQAAPSVPVTPGESVSISCRSSKSLLHSNGNTYLYWFLQRPGQSPQLLIYRMSNLASGVPDRFSGSGSGTAFTLRISRVEAEDVGVYYCMQHLEYPLTFGSGTKLEIK
B1 was tested, and the binding was “binds”.
